Laboratory results taken from the supplement of paper PMC8728848.
The other results are listed elsewhere or left out.

Legend:
Test in all cases: glycan array binding signal (z-score within array); higher = stronger binding
Conditions in all cases: glycan notation: IUPAC condensed, linker removed
[1] = target: Fuc(a1-3)[Gal(b1-4)]GlcNAc(b1-3)Gal(b1-4)[Fuc(a1-3)]GlcNAc(b1-3)Gal(b1-4)[Fuc(a1-3)]GlcNAc
How it was run: (§1)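 From the Consortium for Functional Glycomics database, 3228 arrays were curated, keeping only those whose protein sequence was available. Binding is given as a within-array Z-score averaged across arrays sharing a protein sequence and across linkers. Negative Z-scores can be read as non-binding.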

[2] = target: Fuc(a1-3)[Gal(b1-4)]GlcNAc(b1-3)GalNAc
How it was run: as §1

[3] = target: Fuc(a1-3)[Gal(b1-4)]GlcNAc(b1-4)Gal(b1-4)[Fuc(a1-3)]GlcNAc
How it was run: as §1

[4] = target: Fuc(a1-3)[Gal(b1-4)]GlcNAc(b1-4)Gal(b1-4)[Fuc(a1-3)]GlcNAc(b1-4)Gal(b1-4)[Fuc(a1-3)]GlcNAc
How it was run: as §1

[5] = target: Fuc(a1-3)[Gal(b1-4)]GlcNAc(b1-6)GalNAc
How it was run: as §1

[6] = target: Fuc(a1-3)[Gal(b1-4)]GlcNAc(b1-6)[Gal(b1-3)GlcNAc(b1-3)]Gal(b1-4)Glc
How it was run: as §1

[7] = target: Fuc(a1-3)[Gal(b1-4)]GlcNAc(b1-6)[Neu5Ac(a2-3)Gal(b1-3)]GalNAc
How it was run: as §1

[8] = target: Fuc(a1-3)[Gal(b1-4)]GlcNAc6S
How it was run: as §1

[9] = target: Fuc(a1-3)[Gal3S(b1-4)]Glc
How it was run: as §1

[10] = target: Fuc(a1-3)[Gal3S(b1-4)]GlcNAc
How it was run: as §1

[11] = target: Fuc(a1-3)[Gal3S(b1-4)]GlcNAc6S
How it was run: as §1

[12] = target: Fuc(a1-3)[GalNAc(b1-4)]GlcNAc
How it was run: as §1

[13] = target: Fuc(a1-3)[GalNAc(b1-4)]GlcNAc6S
How it was run: as §1

[14] = target: Fuc(a1-3)[GalNAc3S(b1-4)]GlcNAc
How it was run: as §1

Fuc(a1-4)GlcNAc = target: Fuc(a1-4)GlcNAc
How it was run: as §1

Fuc(b1-3)GlcNAc = target: Fuc(b1-3)GlcNAc
How it was run: as §1

Gal(a1-2)Gal = target: Gal(a1-2)Gal
How it was run: as §1

Gal(a1-3)Gal = target: Gal(a1-3)Gal
How it was run: as §1

Gal(a1-3)Gal(b1-3)GlcNAc = target: Gal(a1-3)Gal(b1-3)GlcNAc
How it was run: as §1

[15] = target: Gal(a1-3)Gal(b1-3)GlcNAc(b1-2)Man
How it was run: as §1

[16] = target: Gal(a1-3)Gal(b1-3)GlcNAc(b1-2)Man(a1-3)[Gal(a1-3)Gal(b1-3)GlcNAc(b1-2)Man(a1-6)]Man(b1-4)GlcNAc(b1-4)GlcNAc
How it was run: as §1

[17] = target: Gal(a1-3)Gal(b1-3)GlcNAc(b1-3)GalNAc
How it was run: as §1

[18] = target: Gal(a1-3)Gal(b1-3)GlcNAc(b1-6)GalNAc
How it was run: as §1

[19] = target: Gal(a1-3)Gal(b1-3)[Fuc(a1-4)]GlcNAc(b1-2)Man(a1-3)[Gal(a1-3)Gal(b1-3)[Fuc(a1-4)]GlcNAc(b1-2)Man(a1-6)]Man(b1-4)GlcNAc(b1-4)GlcNAc
How it was run: as §1

Gal(a1-3)Gal(b1-4)Glc = target: Gal(a1-3)Gal(b1-4)Glc
How it was run: as §1

Gal(a1-3)Gal(b1-4)GlcNAc = target: Gal(a1-3)Gal(b1-4)GlcNAc
How it was run: as §1

[20] = target: Gal(a1-3)Gal(b1-4)GlcNAc(b1-2)Man
How it was run: as §1

[21] = target: Gal(a1-3)Gal(b1-4)GlcNAc(b1-2)Man(a1-3)[Gal(a1-3)Gal(b1-4)GlcNAc(b1-2)Man(a1-6)]Man(b1-4)GlcNAc(b1-4)GlcNAc
How it was run: as §1

[22] = target: Gal(a1-3)Gal(b1-4)GlcNAc(b1-3)GalNAc
How it was run: as §1

[23] = target: Gal(a1-3)Gal(b1-4)GlcNAc(b1-6)GalNAc
How it was run: as §1

[24] = target: Gal(a1-3)Gal(b1-4)[Fuc(a1-3)]GlcNAc
How it was run: as §1

[25] = target: Gal(a1-3)Gal(b1-4)[Fuc(a1-3)]GlcNAc(b1-2)Man(a1-3)[Gal(a1-3)Gal(b1-4)[Fuc(a1-3)]GlcNAc(b1-2)Man(a1-6)]Man(b1-4)GlcNAc(b1-4)GlcNAc
How it was run: as §1

Gal(a1-3)GalNAc = target: Gal(a1-3)GalNAc
How it was run: as §1

[26] = target: Gal(a1-3)[Gal(a1-4)]Gal(b1-4)GlcNAc
How it was run: as §1

[27] = target: Gal(a1-4)Gal(b1-3)GlcNAc(b1-2)Man(a1-3)[Gal(a1-4)Gal(b1-3)GlcNAc(b1-2)Man(a1-6)]Man(b1-4)GlcNAc(b1-4)GlcNAc
How it was run: as §1

Gal(a1-4)Gal(b1-4)Glc = target: Gal(a1-4)Gal(b1-4)Glc
How it was run: as §1

Gal(a1-4)Gal(b1-4)GlcNAc = target: Gal(a1-4)Gal(b1-4)GlcNAc
How it was run: as §1

B1: LlpA1 (Pseudomonas fluorescens), Q4KHC3 (protein)
chain: MGSSHHHHHHSSGLVPRGSHMAWIRYDFTDNGSSVLPARYYMAPNQYLQSPNKRFKLLFQADGNLALYDGAQLAWVADQNTPFTNVSKGNKKDPMMVFMNYGFVLDDPLRGRIWSTTPSDPTMGSREDASLRAFTQVQDDGNIVTVDTIPHWYAPNGRVFTPAVGAAMIIGGTTELVPGQFYSAGEHSLVFQGDGNLVVYGPNSSVIWATYTQNKGGVRCVMQEDGNLVIYAANNGVVWQSGTGGHPGATIRLQANGSFTIVTERPVWARFGYTPTIKPPRVFYPDHKWKTGSYTWNNVF
glycan array binding signal (z-score) [1]: -0.199
glycan array binding signal (z-score) [2]: 0.327
glycan array binding signal (z-score) [3]: -1.15
glycan array binding signal (z-score) [4]: -1.29
glycan array binding signal (z-score) [5]: -0.157
glycan array binding signal (z-score) [6]: -0.172
glycan array binding signal (z-score) [7]: 0.209
glycan array binding signal (z-score) [8]: -0.182
glycan array binding signal (z-score) [9]: -0.092
glycan array binding signal (z-score) [10]: 0.096
glycan array binding signal (z-score) [11]: -0.653
glycan array binding signal (z-score) [12]: -0.611
glycan array binding signal (z-score) [13]: 0.668
glycan array binding signal (z-score) [14]: -0.644
glycan array binding signal (z-score) (Fuc(a1-4)GlcNAc): -0.225
glycan array binding signal (z-score) (Fuc(b1-3)GlcNAc): 0.294
glycan array binding signal (z-score) (Gal(a1-2)Gal): 0.98
glycan array binding signal (z-score) (Gal(a1-3)Gal): 0.304
glycan array binding signal (z-score) (Gal(a1-3)Gal(b1-3)GlcNAc): 0.584
glycan array binding signal (z-score) [15]: -0.352
glycan array binding signal (z-score) [16]: 0.721
glycan array binding signal (z-score) [17]: -0.101
glycan array binding signal (z-score) [18]: -0.107
glycan array binding signal (z-score) [19]: 0.95
glycan array binding signal (z-score) (Gal(a1-3)Gal(b1-4)Glc): -0.111
glycan array binding signal (z-score) (Gal(a1-3)Gal(b1-4)GlcNAc): -0.425
glycan array binding signal (z-score) [20]: -0.521
glycan array binding signal (z-score) [21]: 0.803
glycan array binding signal (z-score) [22]: -0.077
glycan array binding signal (z-score) [23]: 0.065
glycan array binding signal (z-score) [24]: -0.732
glycan array binding signal (z-score) [25]: 0.98
glycan array binding signal (z-score) (Gal(a1-3)GalNAc): -0.274
glycan array binding signal (z-score) [26]: 2.71
glycan array binding signal (z-score) [27]: 0.331
glycan array binding signal (z-score) (Gal(a1-4)Gal(b1-4)Glc): 0.483
glycan array binding signal (z-score) (Gal(a1-4)Gal(b1-4)GlcNAc): 0.4
